Experimental data reported in PubChem BioAssay AID504834 (National Center for Advancing Translational Sciences (NCATS), 2011).
The whole screen tested about 320,000 compounds, of which about 22,000 (6.9%) were called active. The shares of active, inactive and inconclusive entries below differ from those in the screen. The call rests on the fitted dose curve; in most records, active means well fitted inhibition curve with a large enough effect; inconclusive means small, poorly fitted or top-dose-only effect, or another doubt; inactive means no such curve, though single readings can be large or run the other way. A potency beside an inconclusive call is a rough fit, not a confirmed value.

Test: Primary qHTS for delayed death inhibitors of the malarial parasite plastid, 96 hour incubation
Settings: P. falciparum luciferase reporter growth; series mostly up to 28.7 µM; activity change, negative = inhibition: at the top concentration
Outline: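 Compounds incubated with erythrocytes infected by luciferase-expressing P. falciparum (2% hematocrit, 0.05% parasitemia final) for 96 hours, 37 C in 5% CO2. Growth inhibition scored as decreased luciferase luminescence.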
On the % scale 0 is the no-effect control and ±100 the full control effect; potency means the concentration at half of the fitted maximal effect.

Row | Structure (SMILES) | Potency | activity change, negative = inhibition
1 | COc1ccc(NC(=O)C(=O)N/N=C/c2cccnc2)cc1 | inconclusive: 0.0329 µM [inhibitor, full curve, poor fit] | 
2 | COc1ccc(NC(=O)c2ccc(=O)oc2)cc1 | inconclusive: 18.5 µM [inhibitor, single point] | 
3 | CCOC(=O)C(CSCc1ccccc1)NC(=O)OC(C)(C)C (configuration not stated) | inconclusive: 0.117 µM [inhibitor, full curve, poor fit] | 
4 | C=CCN(CC=C)C(=O)Cc1ccc(F)cc1 | inconclusive: 11.7 µM [inhibitor, single point] | 
5 | Cc1c2cn[nH]c(=O)c2c(C)n1Cc1ccc(F)cc1 | inconclusive: 18.5 µM [inhibitor, single point] | 
6 | Cc1ccc(S(=O)(=O)O/N=C2\CCCc3ccccc32)cc1 |  | inactive: -3.74%
7 | Cc1cccc(-n2cnc3c(c2=O)c2nc4ccccc4nc2n3Cc2ccco2)c1 |  | inactive: 84.3%
8 | COC(=O)c1c(C)[nH]c(C(=O)/C=C/c2ccc(Cl)cc2)c1C | inconclusive: 2.33 µM [inhibitor, partial curve] | 
9 | Cc1ccc2c(c1)N(CC(=O)NCCC1=CCCCC1)C(=O)c1cccnc1O2 | inconclusive: 9.28 µM [inhibitor, partial curve] | 
10 | CCC(=O)Nc1nnc(SCC(=O)NCCc2ccc(OC)c(OC)c2)s1 | inconclusive: 4.15 µM [inhibitor, partial curve, poor fit] | 
11 | COc1ccc(OC)c(NC(=O)c2cccc(S(=O)(=O)N(Cc3ccccc3)c3ccccc3OC)c2)c1 | active: 7.38 µM | 
12 | CN1CCCC1CCNc1ccc2c(=O)c3ccccc3oc2c1 (configuration not stated) |  | inactive: 152%
13 | CCOC(=O)N1N=C(CC)CC1(O)C(F)(F)F (configuration not stated) |  | inactive: -6.75%
14 | CS(=O)(=O)N1CCC(C(=O)Nc2cccc(Cl)c2Cl)CC1 | inconclusive: 13.1 µM [inhibitor, single point] | 
15 | Cc1ccc(C(=O)NCc2cccc(C(F)(F)F)c2)cc1S(=O)(=O)N1CCCCC1 | inconclusive: 18.5 µM [inhibitor, single point] | 
16 | O=C(NNC(=S)NC1CC2CCC1C2)c1ccc(Cl)cc1 (configuration not stated) | inconclusive: 9.28 µM [inhibitor, single point] | 
17 | CC1(C)CC(=O)N(c2ccccc2)C1(C)O (configuration not stated) |  | inactive: 0.559%
18 | CC1CCN(C(=O)CCc2nnc(-c3ccccc3)o2)CC1 | inconclusive: 11.7 µM [inhibitor, single point] | 
19 | CC(/C=C/c1ccco1)=N/NC(=O)CNc1ccccc1C | inconclusive: 9.28 µM [inhibitor, partial curve, poor fit] | 
20 | NC(=O)c1cn(Cc2c(F)cccc2F)nn1 | inactive | 
21 | CC(=O)c1cccc(NS(=O)(=O)c2c(C(=O)N3CCOCC3)c(C)n(C)c2C)c1 | inconclusive: 16.5 µM [inhibitor, single point] | 
22 | O=C(O)c1ccc(Oc2cc(Oc3ccc(C(=O)O)cc3)cc([N+](=O)[O-])c2)cc1 | inconclusive: 16.5 µM [inhibitor, single point] | 
23 | Cc1nc2sc(C(c3ccco3)N3CCN(c4cccc(Cl)c4)CC3)c(O)n2n1 (configuration not stated) |  | inactive: 0%
24 | O=C(CSc1ncnc2sc3c(c12)CCC3)Nc1ccccc1C(=O)O |  | inactive: 17.7%

Row | Structure (SMILES) | Potency | activity change, negative = inhibition
25 | O=S1(=O)CCO[C@H]2Cc3ccccc3[C@H]2N1Cc1ccc(F)cc1 |  | inactive: 57.7%
26 | Cc1cccc(Cn2cnc3c(nnn3Cc3ccccc3F)c2=O)c1 |  | inactive: 8.32%
27 | COc1cc(/C=N/NC(=O)c2cc(C)oc2C)cc(OC)c1OC |  | inactive: -16.5%
28 | Cc1nn(C)c(Sc2ccccn2)c1[N+](=O)[O-] | inconclusive: 26.2 µM [inhibitor, partial curve, poor fit] | 
29 | Cc1ccc(Cn2ccsc2=NC(=O)CCl)cc1 | inconclusive: 0.657 µM [inhibitor, full curve, poor fit] | 
30 | CCCCn1c(NS(=O)(=O)c2ccccc2)c(S(=O)(=O)c2ccc(C)cc2)c2nc3ccccc3nc21 | inconclusive: 16.5 µM [inhibitor, single point] | 
31 | O=C(N/N=C/c1cccnc1)C1CCCCC1 |  | inactive: 19.5%
32 | O=C(N/N=C/c1ccc(O)cc1)c1cc(C2CC2)[nH]n1 |  | inactive: 14.4%
33 | CCCCCCOc1ccc(NC(=O)CC2C(=O)N(CC)C(=S)N2Cc2ccco2)cc1 (configuration not stated) |  | inactive: 3.22%
34 | CCOC(=O)C1=C(CSc2nc(-c3ccncc3)ccc2C#N)OC(N)=C(C#N)C1c1cccnc1 (configuration not stated) | inconclusive: 0.0033 µM [inhibitor, full curve, poor fit] | 
35 | O=Cc1ccc(OCc2nnc(-c3ccccc3Br)o2)cc1 |  | inactive: 16.8%
36 | c1ccc(-c2nnc(SCC3CCCO3)nc2-c2ccccc2)cc1 (configuration not stated) | inconclusive: 14.7 µM [inhibitor, partial curve, poor fit] | 
37 | Cc1cc(=O)oc2c(C)c(OC(C)C(=O)NCC3CCC(C(=O)O)CC3)ccc12 (configuration not stated) |  | inactive: 1.45%
38 | Cc1ccc(-c2noc(CCC(=O)Nc3ccccc3N3CCN(C)CC3)n2)cc1 |  | inactive: -10.9%
39 | CSCCC(NC(=O)c1ccccc1)C(=O)NCCCSc1ccccc1 (configuration not stated) | inconclusive: 4.15 µM [inhibitor, partial curve, poor fit] | 
40 | Cc1ccccc1NC(=O)c1c2c(nc3ccccc13)CCC2 |  | inactive: -20.7%
41 | Cc1ccc(-c2nnn(C/C(N)=N/O)n2)cc1 | inconclusive: 9.28 µM [inhibitor, partial curve] | 
42 | CCOC(=O)c1c(NC(=O)CN2C(=O)NC(C)(c3ccc(Cl)cc3)C2=O)sc(C(=O)NC)c1C (configuration not stated) | active: 4.65 µM | 
43 | CC(=O)Nc1cccc(N=NN2CCOCC2)c1 | inconclusive: 18.5 µM [inhibitor, single point] | 
44 | O=C(NCc1nnc(SCC(=O)N2CCc3ccccc32)o1)c1ccco1 | inconclusive: 10.4 µM [inhibitor, single point] | 
45 | CCCS(=O)(=O)N1CCCC(c2nc(-c3ccc(OC)cc3)no2)C1 (configuration not stated) | inconclusive: 18.5 µM [inhibitor, single point] | 
46 | CCOC(=O)C1=C(C)OC(N)=C(C#N)C12C(=O)N(C)c1ccccc12 (configuration not stated) | inconclusive: 18.5 µM [inhibitor, single point] | 
47 | COC(=O)CN(c1ccc(C)cc1)S(=O)(=O)c1ccc(F)cc1 | inconclusive: 18.5 µM [inhibitor, single point] | 
48 | NS(=O)(=O)c1ccc(NC(=O)C2Cc3ccccc3C(=O)O2)cc1 (configuration not stated) |  | inactive: -2.42%

Three compounds from above, arranged by length of the SMILES, rising:
Row | Structure (SMILES) | Potency | activity change, negative = inhibition
26 | Cc1cccc(Cn2cnc3c(nnn3Cc3ccccc3F)c2=O)c1 |  | inactive: 8.32%
38 | Cc1ccc(-c2noc(CCC(=O)Nc3ccccc3N3CCN(C)CC3)n2)cc1 |  | inactive: -10.9%
33 | CCCCCCOc1ccc(NC(=O)CC2C(=O)N(CC)C(=S)N2Cc2ccco2)cc1 (configuration not stated) |  | inactive: 3.22%

(continued)

Row | Structure (SMILES) | Potency | activity change, negative = inhibition
49 | Cc1sc2nc(CSCC(=O)N(C)c3ccccc3)[nH]c(=O)c2c1C | inconclusive: 18.5 µM [inhibitor, single point] | 
50 | CNC(=S)N(CCc1ccc(S(N)(=O)=O)cc1)C1CC(=O)N(c2ccccc2F)C1=O (configuration not stated) | inconclusive: 18.5 µM [inhibitor, single point] | 
51 | C/C(=N\NC(=S)Nc1ccc(C)cc1)c1cccc(N)c1 |  | inactive: -19.8%
52 | COc1cccc(C(=O)C2CN(c3ccccc3)CC2c2ccc(Cl)cc2)c1 (configuration not stated) | active: 10.4 µM | 
53 | Cc1ccc(-c2noc(C3CCCN(C(=O)c4ccc(F)cc4F)C3)n2)cc1 (configuration not stated) | inconclusive: 4.15 µM [inhibitor, partial curve, poor fit] | 
54 | CCOc1ccc(N2C(=O)CC(NC3CCN(C(=O)c4cccc(Cl)c4)CC3)C2=O)cc1 (configuration not stated) | inconclusive: 18.5 µM [inhibitor, single point] | 
55 | Cc1ccc(C(=O)N[C@H](C(=O)OCC(=O)Nc2cccc(S(N)(=O)=O)c2)C(C)C)cc1 |  | inactive: 13.8%
56 | COc1ccc(NC(=O)COc2ccccc2C#N)c(S(=O)(=O)N2CCCCC2)c1 | inconclusive: 10.4 µM [inhibitor, single point] | 
57 | O=C(CNc1cccc2ccccc12)N/N=C/C=C/c1ccco1 | inconclusive: 14.7 µM [inhibitor, partial curve, poor fit] | 
58 | Cc1ccc(Sc2ccc(CN3CCCCC3)cc2[N+](=O)[O-])cc1 | inconclusive: 18.5 µM [inhibitor, single point] | 
59 | CCCCn1c(N)c(N(CC(C)C)C(=O)c2ccc([N+](=O)[O-])o2)c(=O)[nH]c1=O | inconclusive: 9.28 µM [inhibitor, single point] | 
60 | COc1ccc(N2CCN(CCCNC(=O)c3ccc(CS(=O)(=O)c4ccc(Cl)cc4)o3)CC2)cc1 | inconclusive: 18.5 µM [inhibitor, single point] | 
61 | O=C(NCCc1ccccc1)C(=O)NCCC1CCCCN1S(=O)(=O)c1ccccc1 (configuration not stated) | inconclusive: 0.117 µM [inhibitor, single point] | 
62 | O=c1c2ccccc2nc2n1C(CSCc1ccc(Cl)cc1)CS2 (configuration not stated) | inconclusive: 20.8 µM [inhibitor, partial curve, poor fit] | 
63 | COc1cccc(NC(=O)N2CCCC2C(=O)NC2CC2)c1 (configuration not stated) |  | inactive: -11.5%
64 | CC(C)=CCN1CCN(Cc2cn(C(C)C)c3ccccc23)CC1CCO (configuration not stated) | inconclusive: 2.94 µM [inhibitor, single point] | 
65 | C=CCn1c(-c2cc3cccc(OC)c3o2)n[nH]c1=S | inconclusive: 10.4 µM [inhibitor, single point] | 
66 | COc1cc(OC)c(NS(=O)(=O)c2cc3[nH]c(=O)c(=O)[nH]c3cc2C)cc1Cl | inconclusive: 1.65 µM [inhibitor, full curve] | 
67 | Cn1c(=O)[nH]c2nnc(-c3ccc(Cl)c(Cl)c3)nc2c1=O | active: 1.65 µM | 
68 | C=CCOc1ccc(C(=O)CC)cc1OC |  | inactive: -27.1%
69 | CSc1nc(N)nc(-c2cccs2)c1C#N |  | inactive: 83.9%
70 | O=C(NNC(=O)c1cc(Cl)nc2ccccc12)c1ccccc1F |  | inactive: 2.58%
71 | CCN(Cc1ccccc1)C(=O)c1cccc(S(=O)(=O)N2CCN(c3ccccc3)CC2)c1 | inconclusive: 18.5 µM [inhibitor, single point] | 
72 | COc1ccccc1N1CCN(C(CNS(=O)(=O)c2cc(F)ccc2F)c2cccnc2)CC1 (configuration not stated) | inconclusive: 18.5 µM [inhibitor, single point] | 
